PubChem BioAssay AID1259405 – NCATS, 2018
The deposit covers about 50,000 reagents; shown is a part drawn at random. In the full data, about 4,000 (8%) are marked active. 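Mouse siRNA library applied to hamster cells; one well for each siRNA.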 Unmarked entries are inactive. The numbers tell different reagents against one gene apart. Reagent sequences are not shown.

Screen: 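Mouse-designed siRNAs used to find CHO productivity engineering targets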 (primary screen)
System: Chinese hamster CHO-K1 ovary cells with stable secreted eGFP expression
Reagent: single siRNA against mouse genes, 0.8 pmol siRNA per well (2 µl of 400 nM stock)
Time to read-out: 3 days
Detection: 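Per-well intracellular GFP measured by laser scanning cytometry, plus viability from ATP luminescence, each relative to plate median of non-targeting control wells, in %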
Scale: GFP, % of control: higher = more GFP per well, higher productivity; viability (ATP), % of control: higher = more viable cells (more ATP)
Rule for the call: 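a knock-down is called active if GFP reaches 120% or more of non-targeting control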

For Sox1 (SRY (sex determining region Y)-box 1) #1, what was measured?
GFP, % of control: 97.3; viability (ATP), % of control: 80.8

How did the screen score Sox1 (SRY (sex determining region Y)-box 1) #2?
GFP, % of control: 93.7; viability (ATP), % of control: 71.3

For Sox1 (SRY (sex determining region Y)-box 1) #3, how do the results read?
GFP, % of control: 48.9; viability (ATP), % of control: 96.9

What is on record for Sod2 (superoxide dismutase 2, mitochondrial) #1?
GFP, % of control: 63.7; viability (ATP), % of control: 41

How did the screen score Sod2 (superoxide dismutase 2, mitochondrial) #2?
GFP, % of control: 104; viability (ATP), % of control: 51.9

What is on record for Sod2 (superoxide dismutase 2, mitochondrial) #3?
GFP, % of control: 40; viability (ATP), % of control: 51.9

How did the screen score Tmc6 (transmembrane channel-like gene family 6) #1?
GFP, % of control: 87.2; viability (ATP), % of control: 70.9

What did the screen give for Tmc6 (transmembrane channel-like gene family 6) #2?
GFP, % of control: 55.1; viability (ATP), % of control: 55.9

For Tmc6 (transmembrane channel-like gene family 6) #3, how do the results read?
GFP, % of control: 106; viability (ATP), % of control: 127

With Fgf14 (fibroblast growth factor 14) #1, what was measured?
GFP, % of control: 54.8; viability (ATP), % of control: 86.2

For Fgf14 (fibroblast growth factor 14) #2, what was measured?
GFP, % of control: 64.3; viability (ATP), % of control: 70.2

With Fgf14 (fibroblast growth factor 14) #3, what was measured?
GFP, % of control: 77.5; viability (ATP), % of control: 74.2

What is on record for Septin2 (septin 2) #1?
GFP, % of control: 65.3; viability (ATP), % of control: 80.7

What did the screen give for Septin2 (septin 2) #2?
GFP, % of control: 43.5; viability (ATP), % of control: 47.7

For Septin2 (septin 2) #3, what was measured?
GFP, % of control: 62.6; viability (ATP), % of control: 64.2

With Igfbp1 (insulin-like growth factor binding protein 1) #1, what was measured?
GFP, % of control: 79; viability (ATP), % of control: 83.5

For Igfbp1 (insulin-like growth factor binding protein 1) #2, what was measured?
GFP, % of control: 99; viability (ATP), % of control: 98.2

What did the screen give for Igfbp1 (insulin-like growth factor binding protein 1) #3?
GFP, % of control: 40.1; viability (ATP), % of control: 51.3

2 neighbouring entries from above:
Sox1 (SRY (sex determining region Y)-box 1) #2 → GFP, % of control = 93.7; viability (ATP), % of control = 71.3
Sox1 (SRY (sex determining region Y)-box 1) #3 → GFP, % of control = 48.9; viability (ATP), % of control = 96.9

Additional results follow:
For Abca7 (ATP-binding cassette, sub-family A member 7) #1, what was measured?
GFP, % of control: 55.8; viability (ATP), % of control: 111

How did the screen score Abca7 (ATP-binding cassette, sub-family A member 7) #2?
GFP, % of control: 72; viability (ATP), % of control: 82.3

How did the screen score Abca7 (ATP-binding cassette, sub-family A member 7) #3?
GFP, % of control: 102; viability (ATP), % of control: 82.5

With Rassf1 (Ras association (RalGDS/AF-6) domain family member 1) #1, how do the results read?
GFP, % of control: 148 (active); viability (ATP), % of control: 87.9

What did the screen give for Rassf1 (Ras association (RalGDS/AF-6) domain family member 1) #2?
GFP, % of control: 62.7; viability (ATP), % of control: 78.5

For Rassf1 (Ras association (RalGDS/AF-6) domain family member 1) #3, what was measured?
GFP, % of control: 52.5; viability (ATP), % of control: 62.6

With Dgat1 (diacylglycerol O-acyltransferase 1) #1, what does the deposit list?
GFP, % of control: 66; viability (ATP), % of control: 86.5

With Dgat1 (diacylglycerol O-acyltransferase 1) #2, what was measured?
GFP, % of control: 110; viability (ATP), % of control: 140

What did the screen give for Dgat1 (diacylglycerol O-acyltransferase 1) #3?
GFP, % of control: 76.9; viability (ATP), % of control: 105

How did the screen score Ric1 (RAB6A GEF complex partner 1) #1?
GFP, % of control: 48.7; viability (ATP), % of control: 69

Which result is listed for Ric1 (RAB6A GEF complex partner 1) #2?
GFP, % of control: 52.5; viability (ATP), % of control: 72.8

What did the screen give for Ric1 (RAB6A GEF complex partner 1) #3?
GFP, % of control: 131 (active); viability (ATP), % of control: 145

With Mrpl1 (mitochondrial ribosomal protein L1) #1, how do the results read?
GFP, % of control: 68.6; viability (ATP), % of control: 51.6

For Mrpl1 (mitochondrial ribosomal protein L1) #2, how do the results read?
GFP, % of control: 42.5; viability (ATP), % of control: 36.2

For Mrpl1 (mitochondrial ribosomal protein L1) #3, what does the deposit list?
GFP, % of control: 62.9; viability (ATP), % of control: 86.8

For Cop1 (COP1, E3 ubiquitin ligase) #1, how do the results read?
GFP, % of control: 121 (active); viability (ATP), % of control: 107

Which result is listed for Cop1 (COP1, E3 ubiquitin ligase) #2?
GFP, % of control: 31; viability (ATP), % of control: 41.6

With Cop1 (COP1, E3 ubiquitin ligase) #3, what does the deposit list?
GFP, % of control: 75.4; viability (ATP), % of control: 75.2

Which result is listed for Nsmce3 (NSE3 homolog, SMC5-SMC6 complex component) #1?
GFP, % of control: 58.2; viability (ATP), % of control: 60.2

For Nsmce3 (NSE3 homolog, SMC5-SMC6 complex component) #2, what was measured?
GFP, % of control: 78.7; viability (ATP), % of control: 84.7

What is on record for Nsmce3 (NSE3 homolog, SMC5-SMC6 complex component) #3?
GFP, % of control: 83.9; viability (ATP), % of control: 67.5

What is on record for Rbm39 (RNA binding motif protein 39) #1?
GFP, % of control: 80.7; viability (ATP), % of control: 86.3

What did the screen give for Rbm39 (RNA binding motif protein 39) #2?
GFP, % of control: 66.1; viability (ATP), % of control: 80.4

How did the screen score Rbm39 (RNA binding motif protein 39) #3?
GFP, % of control: 48.9; viability (ATP), % of control: 57.8
